The text below walks through data of paper PMC4366199, “Arfaptin-1 Negatively Regulates Arl1-Mediated Retrograde Transport” (PLoS ONE, 2015).

Results are given in words; binding and its absence hold for the method and conditions named. In cells and extracts the contact can be indirect. These calls come from enrichment with a bait or labelling near it, and not all partners need be listed. Tags and fused reporters may be left off the sequences shown.

The target of this assay is T1, GST-Arl1QL (Arf-like protein 1, Gln71 to Leu, putative active GTP-bound form) (human) (UniProt P40616).
T1 sequence: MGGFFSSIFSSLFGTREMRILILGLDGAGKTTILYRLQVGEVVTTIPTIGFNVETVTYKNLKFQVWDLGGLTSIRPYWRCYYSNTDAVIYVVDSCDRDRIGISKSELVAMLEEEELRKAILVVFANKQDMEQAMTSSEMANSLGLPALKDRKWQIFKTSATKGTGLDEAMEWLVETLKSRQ
The assay is described as follows: affinity purification with mass spectrometry; differential affinity chromatography: immobilized GST-Arl1QL, GST-Arl1TN and GST control with HeLa cell proteins; one-dimensional SDS-PAGE and nano-LC-MS/MS; only the target purified.

B1: arfaptin-1b (Arf-interacting protein 1b, long isoform), endogenous (natural protein, human (endogenous in HeLa), UniProt P53367 1-373, looked up)
chain: MAQESPKNSAAEIPVTSNGEVDDSREHSFNRDLKHSLPSGLGLSETQITSHGFDNTKEGVIEAGAFQGSPAPPLPSVMSPSRVAASRLAQQGSDLIVPAGGQRTQTKSGPVILADEIKNPAMEKLELVRKWSLNTYKCTRQIISEKLGRGSRTVDLELEAQIDILRDNKKKYENILKLAQTLSTQLFQMVHTQRQLGDAFADLSLKSLELHEEFGYNADTQKLLAKNGETLLGAINFFIASVNTLVNKTIEDTLMTVKQYESARIEYDAYRTDLEELNLGPRDANTLPKIEQSQHLFQAHKEKYDKMRNDVSVKLKFLEENKVKVLHNQLVLFHNAIAAYFAGNQKQLEQTLKQFHIKLKTPGVDAPSWLEEQ
notes: arfaptin-1b, long isoform of arfaptin-1 with an insertion (residues 69-100) absent from arfaptin-1a; source: endogenous, HeLa lysate
Regarding B1, the binding entry was “binds”.
